From publication PMC5380948
Where two headings read alike, the source gives them in different places. No constants are given. Whether binding was seen depends on the method and setting. In cells and extracts the contact can be indirect. Some entries that bind do so weakly or less than the wild type. Where a sequence is shown, tags or fusion partners need not be part of it.

Chains of the proteins cited; added tags and fusions are not shown.
UniProt Q04206: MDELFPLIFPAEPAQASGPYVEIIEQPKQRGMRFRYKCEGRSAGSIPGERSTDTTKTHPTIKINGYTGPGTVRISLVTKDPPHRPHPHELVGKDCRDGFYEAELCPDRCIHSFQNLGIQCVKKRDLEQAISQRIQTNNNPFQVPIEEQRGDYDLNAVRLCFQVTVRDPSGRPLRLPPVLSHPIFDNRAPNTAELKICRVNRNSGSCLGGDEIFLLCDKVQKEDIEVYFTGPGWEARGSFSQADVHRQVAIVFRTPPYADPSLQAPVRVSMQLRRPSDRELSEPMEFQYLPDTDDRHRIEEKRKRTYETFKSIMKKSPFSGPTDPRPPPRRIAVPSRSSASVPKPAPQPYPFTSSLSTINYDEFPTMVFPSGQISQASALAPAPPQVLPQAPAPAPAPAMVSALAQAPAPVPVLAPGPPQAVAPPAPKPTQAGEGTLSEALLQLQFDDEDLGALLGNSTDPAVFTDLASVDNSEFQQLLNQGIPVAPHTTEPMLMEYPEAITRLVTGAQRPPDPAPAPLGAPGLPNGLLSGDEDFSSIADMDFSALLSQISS

T1: c-Myc-tagged MKRN2 (makorin ring finger protein 2) (mouse) (UniProt Q9ERV1)
T1 sequence: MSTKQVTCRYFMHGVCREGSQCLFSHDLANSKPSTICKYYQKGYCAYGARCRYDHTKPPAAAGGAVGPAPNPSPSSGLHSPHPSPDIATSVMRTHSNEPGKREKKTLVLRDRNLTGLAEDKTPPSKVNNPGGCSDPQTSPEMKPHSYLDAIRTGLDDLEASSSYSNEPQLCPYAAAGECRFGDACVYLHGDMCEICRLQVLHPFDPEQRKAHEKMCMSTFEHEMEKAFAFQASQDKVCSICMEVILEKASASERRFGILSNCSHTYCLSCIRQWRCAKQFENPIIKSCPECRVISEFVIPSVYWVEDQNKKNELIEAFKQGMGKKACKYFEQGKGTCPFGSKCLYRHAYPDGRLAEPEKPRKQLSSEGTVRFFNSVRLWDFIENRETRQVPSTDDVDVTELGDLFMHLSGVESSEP


Legend:
[1] = molecular target: T1, c-Myc-tagged MKRN2 (makorin ring finger protein 2) (mouse); assay: co-IP; 293T cells co-transfected; lysed in 0.5% NP-40, 250 mM NaCl, 10 mM Tris pH 8.0; precipitated with anti-c-Myc antibody-conjugated agarose, washed four times; immunoblot with anti-His or anti-FLAG
[2] = molecular target: T1, c-Myc-tagged MKRN2 (makorin ring finger protein 2) (mouse); assay: as above; remark: listed apart in the source

Row | binding [1] | binding [2] | Molecule
1 | binds | – | FLAG-tagged p65 subunit of NF-κB (from UniProt Q04206 1-551)
2 | – | binds | His-tagged PDLIM2 (protein, UniProt Q8R1G6 1-349) MALTVDVAGPAPWGFRISGGRDFHTPIIVTKVTERGKAEAADLRPGDIIVAINGQSAENMLHAEAQSKIRQSASPLRLQLDRSQTASPGQTNGEGSLEVLATRFQGSLRTHRDSQSSQRSACFSPVSLSPRPCSPFSTPPPTSPVALSKEDMIGCSFQSLTHSPGLAAAHHLTYPGHPTSQQAGHSSPSDSAVRVLLHSPGRPSSPRFSSLDLEEDSEVFKMLQENRQGRAAPRQSSSFRLLQEALEAEERGGTPAFVPSSLSSQASLPTSRALATPPKLHTCEKCSVNISNQAVRIQEGRYRHPGCYTCADCGLNLKMRGHFWVGNELYCEKHARQRYSMPGTLNSRA
